According to PMC8814693 (Computational and Structural Biotechnology Journal, 2022):
These are yes or no findings as the source states them, for the method shown. Some binding calls cover weakened binding; strength is not graded here.

Chains of the proteins cited; added tags and fusions are not shown. Residues count along the entry.
UniProt Q5TBC7: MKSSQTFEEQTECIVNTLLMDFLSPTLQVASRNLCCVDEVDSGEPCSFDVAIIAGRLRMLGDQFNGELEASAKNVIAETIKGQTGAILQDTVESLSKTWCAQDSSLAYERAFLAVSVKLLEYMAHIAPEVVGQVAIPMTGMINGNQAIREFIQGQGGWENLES
UniProt Q07817, residues 1-209: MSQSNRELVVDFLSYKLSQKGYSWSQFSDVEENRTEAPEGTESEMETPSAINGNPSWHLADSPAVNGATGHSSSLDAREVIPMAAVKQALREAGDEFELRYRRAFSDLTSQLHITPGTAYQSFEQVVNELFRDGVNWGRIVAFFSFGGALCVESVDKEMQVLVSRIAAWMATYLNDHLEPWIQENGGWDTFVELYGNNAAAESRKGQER
UniProt P10415, residues 1-207: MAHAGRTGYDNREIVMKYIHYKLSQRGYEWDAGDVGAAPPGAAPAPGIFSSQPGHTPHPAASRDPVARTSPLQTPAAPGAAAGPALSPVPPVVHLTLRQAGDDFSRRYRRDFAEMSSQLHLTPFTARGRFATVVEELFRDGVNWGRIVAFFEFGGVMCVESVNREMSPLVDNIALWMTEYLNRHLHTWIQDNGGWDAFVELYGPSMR

What was measured:
[1] = target: human full-length Bfk (Bcl-2 family kin) (human) (UniProt Q5TBC7); assay: SPR; full-length Bfk amine-coupled to a CM5 chip (10 mM sodium acetate pH 3.6); Bcl-2, Bcl-XL (3.13-200 nM) and Bak (1.25-40.0 uM) injected in HBS-EP at 30 uL/min for 90 s; Biacore T200; both purified
[2] = target: human full-length Bfk (Bcl-2 family kin) (human) (UniProt Q5TBC7); assay: SEC; gel filtration step of the purification, HiLoad 16/600 Superdex 75 pg, 200 mM NaCl, 25 mM MES-NaOH pH 6.0; both purified
[3] = target: T1, synthetic BH3 peptide derived from Bid (residues 79-100); assay: SPR; Bid BH3 peptide amine-coupled to a CM5 chip (10 mM sodium acetate pH 4.0); proteins injected in HBS-EP (10 mM HEPES pH 7.5, 150 mM NaCl, 0.05 mM EDTA, 0.005% Tween 20) at 30 uL/min for 90 s; Biacore T200; affinity experiments, responses plotted against concentration; both purified
T1 sequence (peptide): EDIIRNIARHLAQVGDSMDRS

## Bcl-XL (residues 1-209) (from UniProt Q07817-1 1-209) (domain or fragment)
[1]
  binding: no binding (tested: 200 nM)

## human full-length Bfk (Bcl-2 family kin) (from UniProt Q5TBC7 1-163)
[2]
  binding: binds weakly
[3]
  binding: no binding (tested: 40 μM)

## Bcl-2 (residues 1-207) (from UniProt P10415 1-207) (domain or fragment)
[1]
  binding: no binding (tested: 200 nM)
